Results are given in words; binding and its absence hold for the method and conditions named. In cells and extracts the contact can be indirect. A yes stands for co-enrichment or nearness to the bait. Other partners may have been found. Where a sequence is shown, tags or fusion partners need not be part of it.
T1: Histidine-tagged SCHAD (UniProt Q16836)
T1 sequence: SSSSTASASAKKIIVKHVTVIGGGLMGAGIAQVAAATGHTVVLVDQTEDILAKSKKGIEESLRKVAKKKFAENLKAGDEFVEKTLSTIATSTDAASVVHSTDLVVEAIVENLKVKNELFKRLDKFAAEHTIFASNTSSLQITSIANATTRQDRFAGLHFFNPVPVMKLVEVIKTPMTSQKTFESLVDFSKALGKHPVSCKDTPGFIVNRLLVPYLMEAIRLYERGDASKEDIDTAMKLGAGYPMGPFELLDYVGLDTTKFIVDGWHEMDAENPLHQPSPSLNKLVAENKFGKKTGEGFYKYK

By UniProt entry, the sequences of proteins in these tests, tags left out. Residues count along the entry.
UniProt Q91WD5, residues 34-463: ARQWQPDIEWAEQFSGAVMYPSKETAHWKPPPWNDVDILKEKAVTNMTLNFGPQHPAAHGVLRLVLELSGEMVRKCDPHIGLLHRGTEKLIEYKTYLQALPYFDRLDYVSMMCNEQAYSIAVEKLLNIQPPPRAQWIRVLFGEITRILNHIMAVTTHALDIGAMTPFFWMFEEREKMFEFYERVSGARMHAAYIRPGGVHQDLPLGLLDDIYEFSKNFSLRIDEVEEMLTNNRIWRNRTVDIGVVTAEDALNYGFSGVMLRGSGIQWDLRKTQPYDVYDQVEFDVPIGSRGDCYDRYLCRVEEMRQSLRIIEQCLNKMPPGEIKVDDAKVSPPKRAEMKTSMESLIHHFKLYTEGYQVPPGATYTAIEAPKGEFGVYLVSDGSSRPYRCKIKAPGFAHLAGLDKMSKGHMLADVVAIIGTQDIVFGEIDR
UniProt P15105: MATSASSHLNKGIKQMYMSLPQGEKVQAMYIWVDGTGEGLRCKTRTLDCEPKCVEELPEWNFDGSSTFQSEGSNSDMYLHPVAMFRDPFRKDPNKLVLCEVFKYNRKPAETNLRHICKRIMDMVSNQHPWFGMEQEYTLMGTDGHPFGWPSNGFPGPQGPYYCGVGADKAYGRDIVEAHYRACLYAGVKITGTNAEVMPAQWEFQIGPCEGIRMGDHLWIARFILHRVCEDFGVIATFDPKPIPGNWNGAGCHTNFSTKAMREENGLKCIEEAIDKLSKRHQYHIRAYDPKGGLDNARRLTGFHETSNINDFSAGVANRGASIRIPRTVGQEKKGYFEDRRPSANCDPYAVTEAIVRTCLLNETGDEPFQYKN
UniProt P97807, residues 42-507: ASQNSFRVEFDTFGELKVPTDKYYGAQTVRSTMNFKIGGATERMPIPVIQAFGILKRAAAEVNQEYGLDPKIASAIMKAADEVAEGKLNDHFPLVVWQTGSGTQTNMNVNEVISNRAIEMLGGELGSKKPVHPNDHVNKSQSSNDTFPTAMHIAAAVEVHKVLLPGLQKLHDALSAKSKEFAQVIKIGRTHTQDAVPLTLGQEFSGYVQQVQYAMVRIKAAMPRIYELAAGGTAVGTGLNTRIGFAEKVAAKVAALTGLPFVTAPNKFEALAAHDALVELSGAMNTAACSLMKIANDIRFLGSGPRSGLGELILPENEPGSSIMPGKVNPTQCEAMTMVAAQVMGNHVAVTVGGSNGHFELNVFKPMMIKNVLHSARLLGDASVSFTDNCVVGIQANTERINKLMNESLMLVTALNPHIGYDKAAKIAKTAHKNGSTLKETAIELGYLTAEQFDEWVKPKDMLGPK
UniProt Q91YI0: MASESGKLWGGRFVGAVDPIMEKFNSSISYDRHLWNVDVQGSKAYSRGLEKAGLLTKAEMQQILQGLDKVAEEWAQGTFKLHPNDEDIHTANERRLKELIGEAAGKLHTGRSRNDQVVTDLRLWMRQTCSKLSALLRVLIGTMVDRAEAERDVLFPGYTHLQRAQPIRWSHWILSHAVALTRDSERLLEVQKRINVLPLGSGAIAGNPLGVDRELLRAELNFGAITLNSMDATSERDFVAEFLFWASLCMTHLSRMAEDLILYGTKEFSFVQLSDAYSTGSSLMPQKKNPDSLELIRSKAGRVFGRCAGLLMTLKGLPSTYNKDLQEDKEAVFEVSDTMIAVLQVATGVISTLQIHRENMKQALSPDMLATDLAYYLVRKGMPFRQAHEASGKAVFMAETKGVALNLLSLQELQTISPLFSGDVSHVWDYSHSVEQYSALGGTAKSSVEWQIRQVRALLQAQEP
UniProt Q9D0K2, residues 40-520: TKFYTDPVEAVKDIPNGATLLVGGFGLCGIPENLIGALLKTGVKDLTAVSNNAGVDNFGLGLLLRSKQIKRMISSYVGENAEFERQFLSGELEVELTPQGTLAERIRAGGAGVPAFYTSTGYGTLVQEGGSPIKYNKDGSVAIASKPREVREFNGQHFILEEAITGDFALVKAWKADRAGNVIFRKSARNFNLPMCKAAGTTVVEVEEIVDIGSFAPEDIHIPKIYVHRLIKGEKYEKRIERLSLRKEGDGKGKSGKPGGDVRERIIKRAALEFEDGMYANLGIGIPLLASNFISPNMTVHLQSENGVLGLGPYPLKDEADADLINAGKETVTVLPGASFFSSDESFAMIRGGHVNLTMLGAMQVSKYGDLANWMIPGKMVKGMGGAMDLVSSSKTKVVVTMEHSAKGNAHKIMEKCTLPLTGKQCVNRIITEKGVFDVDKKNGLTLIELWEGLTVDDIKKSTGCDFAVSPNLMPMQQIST
UniProt P26443, residues 54-558: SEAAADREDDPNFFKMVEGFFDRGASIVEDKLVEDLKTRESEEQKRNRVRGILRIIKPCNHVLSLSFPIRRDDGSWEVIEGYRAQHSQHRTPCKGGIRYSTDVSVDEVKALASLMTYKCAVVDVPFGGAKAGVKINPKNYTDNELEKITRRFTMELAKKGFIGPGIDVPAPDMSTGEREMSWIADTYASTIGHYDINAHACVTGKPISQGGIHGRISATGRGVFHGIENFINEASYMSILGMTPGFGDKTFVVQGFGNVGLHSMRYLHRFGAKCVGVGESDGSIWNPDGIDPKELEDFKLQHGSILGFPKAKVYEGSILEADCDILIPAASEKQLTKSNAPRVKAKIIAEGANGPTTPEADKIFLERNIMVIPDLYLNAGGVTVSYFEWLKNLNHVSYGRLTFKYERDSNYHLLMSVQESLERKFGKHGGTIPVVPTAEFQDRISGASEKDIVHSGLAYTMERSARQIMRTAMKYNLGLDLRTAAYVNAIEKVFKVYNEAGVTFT


Molecular target: T1, Histidine-tagged SCHAD
Test: affinity purification with mass spectrometry; His-tagged SCHAD linked to agarose beads (AminoLink Plus, cyanoborohydride); homogenates of mouse liver, muscle, heart, kidney and brain (wild type and SCHAD knockout) in 50 mM Tris-HCl, 0.1% Triton-X 100, 1 mg/mL, 4°C overnight; eluted proteins identified by LC-MS/MS, BSA beads as control; only the target purified

Molecule | binding
NADH dehydrogenase iron-sulfurprotein2 (from UniProt Q91WD5 34-463) | binds
glutamine synthase (mouse) (from UniProt P15105 1-373) | binds
fumarate hydratase (from UniProt P97807 42-507) | binds
glycogen phosphorylase (mouse) | binds
argininosuccinate lyase (from UniProt Q91YI0 1-464) | binds
ACAD 10 (protein, UniProt Q8K370 1-1069) MLVRRLFQPSTLHWAWRTTALNHPLGRHQGGLRWTHSGGRSYRAVIFDTGGVLVPSPGTVAVGWEVQNHVPSGTIVKAFIRGGDSGPWIRFIKGEITTEHFLEEFGRLCSEIAKTSVPVSSYFSLLTSEQVTKQFPVMTQAISQIRAKGLQTAVLTNNFHLSSGESFLPLDRKQFDVVVESCLEGICKPDPRIFQLCLQRLSLQPSEAIFLDDLGSNLKVAASLGIHTIKVDRPETAVKELEALLGFPLHLGVPNTRPVRKTMAIPQDALEKYLKGLLGTHSTGPMELLQFDHGQSNPTYYIRLADRQLVLRKKPSGTLLPSAHAIEREFRIMKALANAGVPVPTVLDLCEDSSIIGTPFYLMEYCPGIIYKDPSLPGLEPSRREAIYTAMNQVLCRIHSVDLQATSLDSFGKQGDYIPRQVQTWTKQYRAAETSSIPAMERLIQWLPLHLPRQQRTTLVHGDFRLDNLIFHPEKAEVLAVLDWELSTLGDPFADVAYSCLAYYLPSSFPILRGFRDQDVTKLGIPTVEEYFRMYCLNMGIPPIDNWNFYMAFSFFRVAAILQGVYKRSLTGQASSATAQQSGKLTESMAELAWDFATKEGFRVFKEMPATKTLSRSYHAWAGPRSPRTPKGVRGHSTVAAASPSHEAKGGLVISPEGLSPAVRKLYEQLVQFIEQKVYPLEPELQRHQASADRWSPSPLIEDLKEKAKAEGLWNLFLPLETDPEKKYGAGLTNVEYAHLCEVMGMSLYASEIFNCSAPDTGNMEILVRYGTEEQKARWLVPLLEGRIRSCFAMTEPQVASSDASNIEASIKEEDGCYVINGHKWWTSGILDPRCKLCVFMGKTDPQAPRHQQQSMLLVPMDSPGITVIRPLSVFGLEDPPGGHGEVRFKDVRVPKENILLGPGRGFEIAQGRLGPGRIHHCMRLIGYSERALALMKTRVMSRTAFGKPLVEQGTILADIARSRVEIEQARLLVLKAAHLMDVAGNKTAALDIAMIKMVVPSMAYHVIDRAIQAFGAAGLSSDYPLAQFFGWARALRFADGPDEVHQLTVAKMELKNQSRMQEPAVPRV | binds
long chain acyl-CoA dehydrogenase (protein, UniProt P51174 31-430) GAEARLETPSAKKLTDVGIRRIFSSEHDIFRESVRKFFQEEVIPHHTEWEKAGEVSREVWEKAGKQGLLGINIAEKHGGIGGDLLSTAVTWEEQAYSNCTGPGFSLHSDIVMPYIANYGTKEQIEKFIPQMTAGKCIGAIAMTEPGAGSDLQGVRTNAKRSGSDWILNGSKVFITNGWLSDLVIVVAVTNREARSPAHGISLFLVENGMKGFIKGRKLHKMGMKAQDTAELFFEDVRLPANALLGEENKGFYYLMQELPQERLLIAELAISACEFMFEETRNYVKQRKAFGKTVAHIQTVQHKLAELKTHICVTRAFVDSCLQLHETKRLDSGSASMAKYWASELQNSVAYECVQLHGGWGYMWEYPIAKAYVDARVQPIYGGTNEIMKELIARQIVSDS | binds

Now from value to molecule:

binding | Molecule
binds | isocitrate dehydrogenase (mouse (endogenous in mouse tissues))
binds | succinyl-CoA: 3-ketoacid acyl transferase (from UniProt Q9D0K2 40-520)
binds | aspartate aminotransferase (mouse)
binds | 3-ketoacyl-coA thiolase (mouse (endogenous in mouse tissues))
binds | glutamate dehydrogenase (mouse) (from UniProt P26443 54-558)
binds | carnitine palmitoyl transferase 2 (protein, UniProt P52825 26-658) SAVSGPAEYLQHSIVPTMHYQDSLPRLPIPKLEDTMKRYLSAQKPLLNDSQFRKTEVLCKDFENGIGKELHAHLLAQDKQNKHTSYISGPWFDMYLTARDSVVLNFNPFMAFNPDPKSEYNDQLTRATNLTVSAVRFLKTLRAGLLEPEVFHLNPARSDTDAFKRLIRFVPSSLSWYGAYLVNAYPLDMSQYFRLFNSTRIPKPSRDELFTDTKARHLLVLRKGHFYVFDVLDQDGNIVNPSEIQAHLKYILSDSSPVPEFPLAYLTSENRDVWAELRQKLIHGGNEETLRKVDSAVFCLCLDDFPMKDLVHLSHTMLHGDGTNRWFDKSFNLIVAKDGTAAVHFEHAWGDGVAVLRFFNEVFRDSTQTPAIAPQSQPAATDSSVSVQKLSFKLSSALKAGVTAAKEKFDATMKTLTIDAIQFQRGGKEFLKKKKLSPDAVAQLAFQMAFLRQYGQTVATYESCSTAAFKHGRTETIRPASIFTKRCSEAFVREPSKHSVGELQHMMAECSKYHGQLTKEAAMGQGFDRHLFALRYLAAARGVTLPELYQDPAYQRINHNILSTSTLSSPAVSLGGFAPVVPDGFGIAYAVHDDWIGCNVSSYSGRNAREFLHCVQKCLEDMFDALEGKAIKT
binds | carbamoyl phosphate synthase 1 (mouse) (protein, UniProt Q8C196 39-1500) LSVKAKTAHIVLEDGTKMKGYSFGHPSSVAGEVVFNTGLGGYPEALTDPAYKGQILTMANPIIGNGGAPDTTARDELGLNKYMESDGIKVAGLLVLNYSNDYNHWLATKSLGQWLQEEKVPAIYGVDTRMLTKIIRDKGTMLGKIEFEGQSVDFVDPNKQNLIAEVSTKDVKVFGKGNPTKVVAVDCGIKNNVIRLLVKRGAEVHLVPWNHDFTQMEYDGLLIAGGPGNPALAQPLIQNVKKILESDRKEPLFGISTGNIITGLAAGAKSYKMSMANRGQNQPVLNITNRQAFITAQNHGYALDNTLPAGWKPLFVNVNDQTNEGIMHESKPFFAVQFHPEVSPGPTDTEYLFDSFFSLIKKGKGTTITSVLPKPALVASRVEVSKVLILGSGGLSIGQAGEFDYSGSQAVKAMKEENVKTVLMNPNIASVQTNEVGLKQADAVYFLPITPQFVTEVIKAERPDGLILGMGGQTALNCGVELFKRGVLKEYGVKVLGTSVESIMATEDRQLFSDKLNEINEKIAPSFAVESMEDALKAADTIGYPVMIRSAYALGGLGSGICPNKETLIDLGTKAFAMTNQILVERSVTGWKEIEYEVVRDADDNCVTVCNMENVDAMGVHTGDSVVVAPAQTLSNAEFQMLRRTSVNVVRHLGIVGECNIQFALHPTSMEYCIIEVNARLSRSSALASKATGYPLAFIAAKIALGIPLPEIKNVVSGKTSACFEPSLDYMVTKIPRWDLDRFHGTSSRIGSSMKSVGEVMAIGRTFEESFQKALRMCHPSVDGFTPRLPMNKEWPANLDLKKELSEPSSTRIYAIAKALENNMSLDEIVRLTSIDKWFLYKMRDILNMDKTLKGLNSDSVTEETLRKAKEIGFSDKQISKCLGLTEAQTRELRLKKNIHPWVKQIDTLAAEYPSVTNYLYVTYNGQEHDIKFDEHGIMVLGCGPYHIGSSVEFDWCAVSSIRTLRQLGKKTVVVNCNPETVSTDFDECDKLYFEELSLERILDIYHQEACNGCIISVGGQIPNNLAVPLYKNGVKIMGTSPLQIDRAEDRSIFSAVLDELKVAQAPWKAVNTLNEALEFANSVGYPCLLRPSYVLSGSAMNVVFSEDEMKRFLEEATRVSQEHPVVLTKFVEGAREVEMDAVGKEGRVISHAISEHVEDAGVHSGDATLMLPTQTISQGAIEKVKDATRKIAKAFAISGPFNVQFLVKGNDVLVIECNLRASRSFPFVSKTLGVDFIDVATKVMIGESIDEKRLPTLEQPIIPSDYVAIKAPMFSWPRLRDADPILRCEMASTGEVACFGEGIHTAFLKAMLSTGFKIPQKGILIGIQQSFRPRFLGVAEQLHNEGFKLFATEATSDWLNANNVPATPVAWPSQEGQNPSLSSIRKLIRDGSIDLVINLPNNNTKFVHDNYVIRRTAVDSGIALLTNFQVTKLFAEAVQKSRTVDSKSLFHYRQYSAGKAA
